This note sets out measurements from PubChem BioAssay AID1487 (National Center for Advancing Translational Sciences (NCATS), 2009).

The assay can be described thus: qHTS Assay for Modulators of Lamin A Splicing. Particulars: HeLa LMNA splicing GFP/RFP minigene ratio, 48 h. An outline of the steps: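 S3 HeLa cells stably expressing lamin A-EGFP splicing minigene plus DsRed2, 600 cells/well, 48 h compound exposure at 37C. Laser-scanning cytometry; analysed as GFP (500-530 nm)/RFP (575-640 nm) total intensity ratio; 0.5% DMSO vehicle.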
(In general: In qHTS, concentration-response curves come from the screen itself.)

Setting [1] is: measured here: RFP viability control channel.
The mark [2] stands for this setting: measured here: GFP splicing reporter channel.

Some of the results follow. The main result of the screen is listed elsewhere. These columns were measured beside it and carry no call. Compounds called inactive in the main read-out are mostly missing here. Words in brackets tell the shape of the fitted curve; partial curves, single points and poor fits give uncertain potencies.

By AC50 is commonly meant the concentration giving half of the maximal activity seen. As for `COC(=O)c1cccc(CSc2nc3ccccc3[nH]2)c1`, the concentration at half-maximal activity (AC50) under setting [1] is 11.2 µM [rising, partial curve].

Regarding `Cn1cc(C(=O)c2ccc(Cl)cc2Cl)cc1C(=O)N/N=C(\N)COc1cccc(C(F)(F)F)c1`, the concentration at half-maximal activity (AC50) under setting [1] was 15.8 µM [rising, single point].

With `C=CCn1c(SCc2ccc(Cl)c(Cl)c2)nnc1C(CO)NC(=O)c1ccc(OC)cc1` (stereo not drawn), the AC50 under setting [1] was 12.6 µM [rising, single point].

As to `Cc1ccccc1Oc1cc(-n2ncc(Cl)c(Cl)c2=O)ncn1`, the half-maximal activity concentration (AC50) under setting [2] is 12.6 µM [falling, partial curve, poor fit] and the AC50 under setting [1] is 20 µM [falling, single point].

For `CCOc1ccc(NC2=C(OC)C(=O)c3ccccc3C2=O)cc1`, the AC50 under setting [1] is 15.8 µM [rising, single point].

Regarding `Cc1ccc(S(=O)(=O)/N=C(\N)Nc2nc(C)c3cc(C)c(C)cc3n2)cc1`, under setting [1], the AC50 was 22.4 µM [rising, single point].

On to `COc1ccc(-c2cc(C(F)(F)F)nc(SCC(=O)N(C)Cc3cnn(C)c3C)n2)cc1OC`, for which the AC50 under setting [1] was 2.82 µM [rising, full curve].

Take `CCCCC(=O)OC1CCC2C3CCc4cc(O)ccc4C3CC[C@]12C` (stereo partly drawn): the concentration at half-maximal activity (AC50) under setting [2] was 10 µM [falling, partial curve] and the concentration at half-maximal activity (AC50) under setting [1] is 11.2 µM [falling, partial curve, poor fit].

Take `Cc1ccccc1C(=O)Nc1nc(-c2ccc(Br)cc2)ns1`: the concentration at half-maximal activity (AC50) is 0.224 µM [rising, partial curve] under setting [2] and 22.4 µM [rising, partial curve, poor fit] under setting [1].

Regarding `c1ccc(COn2c(-c3ccccc3)nc3c2CCc2nonc2-3)cc1`, the half-maximal activity concentration (AC50) under setting [1] was 35.5 µM [rising, single point].

As to `CC(C)NC(=O)C1CCC(Cn2c(=O)c3sccc3n(CC(=O)Nc3ccccc3)c2=O)CC1` (stereo not drawn), the AC50 under setting [1] is 17.8 µM [falling, single point].

In the case of `COC(=O)CCN(C1CCCCC1)S(=O)(=O)c1ccc(S(=O)(=O)NC2CCCCC2)cc1`, the AC50 under setting [2] is 3.98 µM [falling, single point] and the AC50 under setting [1] is 3.16 µM [falling, single point].

For the compound `CC(C)Oc1ccc(CNC(=O)C2CCN(C(=O)N3CC(C)Oc4ccccc43)CC2)cc1` (stereo not drawn), the AC50 under setting [1] was 6.31 µM [falling, partial curve, poor fit].

For the compound `CC(=O)N1N=C(c2ccccc2)CC1c1cn(Cc2ccccc2)c2ccccc12` (stereo not drawn), the AC50 reads like this: under setting [2], 17.8 µM [rising, single point]; under setting [1], 17.8 µM [rising, partial curve, poor fit].

Take `CCCCOc1ccc(Cc2c(Cl)nc(SC)nc2N2CCOCC2)cc1`: the AC50 under setting [1] is 12.6 µM [rising, partial curve].

Consider `O=c1c(-c2ccc(Cl)cc2)cnc2n1CCS2`, for which the concentration at half-maximal activity (AC50) under setting [2] is 0.0316 µM [falling, full curve, poor fit].

As to `COCCCNC(=O)c1ccc2c(c1)nc1n2CCCCC1`, the concentration at half-maximal activity (AC50) is, setting by setting: under setting [2], 1.58 µM [rising, full curve]; under setting [1], 2.82 µM [rising, full curve].

As to `Cc1ccc2nc(N/N=C/c3ccccc3F)nc(-c3ccccc3)c2c1`, the AC50 under setting [1] was 22.4 µM [rising, partial curve, poor fit].

As to `CCOC(=O)CN1C(=O)N[C@@H](c2cccc(C(F)(F)F)c2)[C@H](C(=O)OC)[C@H]1C`, under setting [2], the concentration at half-maximal activity (AC50) is 0.000891 µM [rising, full curve, poor fit].

Consider `COc1ccc(CNCCC(c2ccc(F)cc2)c2ccc(OC)cc2)cc1` (stereo not drawn), for which the concentration at half-maximal activity (AC50) under setting [1] is 12.6 µM [rising, single point].

As for `Oc1c(C(c2ccccc2Cl)N2CCN(Cc3ccccc3)CC2)sc2nc(-c3ccco3)nn12` (stereo not drawn), the half-maximal activity concentration (AC50) under setting [2] is 0.355 µM [falling, full curve, poor fit].

As for `Cc1cc(C)n(CC(=O)N/N=C/c2cc([N+](=O)[O-])ccc2O)n1`, the concentration at half-maximal activity (AC50) under setting [1] is 1.12 µM [rising, full curve, poor fit].

With `O=C(CCCCn1c(=O)c2ccccc2n(Cc2ccccc2)c1=O)NC1CCN(Cc2ccccc2)CC1`, the concentration at half-maximal activity (AC50) was 17.8 µM [falling, partial curve, poor fit] under setting [2] and 14.1 µM [falling, partial curve, poor fit] under setting [1].

Regarding `COC(=O)c1cccc(NS(=O)(=O)c2ccc(OC)cc2)c1C`, under setting [1], the half-maximal activity concentration (AC50) was 5.01 µM [rising, partial curve].

With `Cc1sc2nc(SCC(=O)NCc3cccs3)[nH]c(=O)c2c1C`, the half-maximal activity concentration (AC50) under setting [1] is 0.178 µM [rising, full curve, poor fit].

With `O=C(O)Cc1sc(N/N=C\c2ccccc2)nc1-c1ccccc1`, the AC50 by setting is: under setting [2], 10 µM [rising, partial curve]; under setting [1], 10 µM [rising, partial curve].

With `CNC(=S)N1CCN(C(c2ccccc2)c2ccccc2)CC1`, the AC50 by setting is: under setting [2], 0.0447 µM [falling, full curve, poor fit]; under setting [1], 0.0447 µM [falling, full curve].

For `COCCCNCCCCOc1ccc(OCc2ccccc2)cc1`, the half-maximal activity concentration (AC50) under setting [2] is 28.2 µM [falling, partial curve, poor fit] and the concentration at half-maximal activity (AC50) under setting [1] was 35.5 µM [falling, partial curve, poor fit].

Regarding `Cc1ccccc1NC(=O)CSc1ccsc1[N+](=O)[O-]`, under setting [1], the concentration at half-maximal activity (AC50) was 15.8 µM [rising, partial curve, poor fit].

With `CCc1cc(C(=O)c2ccc(C)cc2)c(NC(=O)CCl)s1`, the AC50 reads like this: under setting [2], 20 µM [falling, partial curve, poor fit]; under setting [1], 35.5 µM [falling, single point].

As for `C/C(=N\Nc1nc(Cl)c(Cl)cc1Cl)c1ccc(S(=O)(=O)NCc2ccco2)cc1`, the AC50 is, setting by setting: under setting [2], 11.2 µM [rising, partial curve]; under setting [1], 11.2 µM [rising, partial curve].

As for `CC(=NCc1cccc(Cl)c1)c1nc(-c2ccco2)oc1O`, the AC50 under setting [2] was 10 µM [rising, partial curve, poor fit] and the AC50 under setting [1] is 11.2 µM [rising, partial curve].

On to `O=C1OCC2=C1C(c1ccc3c(c1)OCO3)Sc1ccccc1N2` (stereo not drawn), for which the concentration at half-maximal activity (AC50) under setting [1] was 15.8 µM [rising, single point].

Consider `N#Cc1ccc(CSc2nnc(NC(=O)C3CC(=O)N(c4ccc5c(c4)OCCO5)C3)s2)cc1` (stereo not drawn), for which the concentration at half-maximal activity (AC50) runs as follows: under setting [2], 22.4 µM [rising, single point]; under setting [1], 35.5 µM [rising, single point].
